These are yes or no findings as the source states them, for the method shown. Binding seen in cells or lysates may run through a third protein. Here binding means that the protein was enriched with, or labelled near, the bait; the list need not be complete.
Target: SIRT6-FLAG (human) (UniProt Q8N6T7)
Assay: affinity purification with mass spectrometry; SIRT6-FLAG overexpressing and control 293T cells treated with paclitaxel (M phase); anti-FLAG immunoprecipitation, SDS-PAGE, in-gel digestion, LC-MS/MS; SAINT score >= 0.85

Protein sequences, listed by entry. Tags and fused reporters are not part of them.
UniProt Q8N6T7: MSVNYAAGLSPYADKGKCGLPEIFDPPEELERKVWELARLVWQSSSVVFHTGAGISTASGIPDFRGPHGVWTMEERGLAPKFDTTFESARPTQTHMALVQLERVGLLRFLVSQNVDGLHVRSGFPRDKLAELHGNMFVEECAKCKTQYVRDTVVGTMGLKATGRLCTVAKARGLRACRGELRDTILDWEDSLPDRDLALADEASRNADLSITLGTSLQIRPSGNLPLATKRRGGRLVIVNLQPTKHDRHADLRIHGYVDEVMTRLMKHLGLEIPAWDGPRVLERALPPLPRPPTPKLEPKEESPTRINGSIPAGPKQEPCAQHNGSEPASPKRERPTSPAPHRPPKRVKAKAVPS
UniProt Q13283: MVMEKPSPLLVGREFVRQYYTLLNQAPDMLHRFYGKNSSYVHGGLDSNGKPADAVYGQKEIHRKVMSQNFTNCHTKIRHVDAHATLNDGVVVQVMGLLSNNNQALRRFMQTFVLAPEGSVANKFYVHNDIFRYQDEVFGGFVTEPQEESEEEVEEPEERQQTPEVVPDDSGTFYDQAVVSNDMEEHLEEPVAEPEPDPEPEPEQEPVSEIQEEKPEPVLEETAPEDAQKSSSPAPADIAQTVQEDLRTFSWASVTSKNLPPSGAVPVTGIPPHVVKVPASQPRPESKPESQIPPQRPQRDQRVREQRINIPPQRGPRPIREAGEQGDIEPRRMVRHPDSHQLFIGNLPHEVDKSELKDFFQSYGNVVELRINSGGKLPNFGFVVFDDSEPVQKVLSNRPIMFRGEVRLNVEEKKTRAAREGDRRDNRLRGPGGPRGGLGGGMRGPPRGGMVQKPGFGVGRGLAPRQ

Substance: G3BP1 (from UniProt Q13283 1-466)
- binding: binds

Reference: paper PMC8270898
